In all, about 300,000 compounds went through this assay and about 3,700 (1.2%) were called active. This list was built around the results that the source calls inconclusive (neither active nor inactive); the mix of calls is not that of the screen. Calls follow the shape of the full dose curve; tested in HEK293 cells. Where the call is inconclusive, the potency comes from a doubtful curve fit.
assay: qHTS for Inhibitors of binding or entry into cells for Lassa Virus; settings: Lassa virus pseudotype entry inhibition, cell reporter; activity change, negative = inhibition: at 37.9 µM (top of the series) unless noted; also: nearly all actives have a fitted effect of over 50% in size
% is scaled to controls: 0 for no effect and ±100 for the full control effect; potency is read from the fitted curve at half-maximal effect.

**Q.** Which “activity change, negative = inhibition” value does the source give for `Cc1cccc(C)c1OCC(=O)OC/C(O)=C(\C#N)c1nc2ccccc2[nH]1` here?
**A.** Its value is inactive: 3.85%.

**Q.** With `O=C(c1cc(-c2ccccc2)on1)N1CCc2ccccc2C1` as the compound, how does the Potency read?
**A.** Its Potency is inconclusive: 11.2 µM [activator, single point].

**Q.** Which Potency does the source give for `Cc1ccc(/C=N/Nc2nc(N3CCCCC3)nc(N3CCCCC3)n2)o1` here?
**A.** Its Potency is inconclusive: 35.5 µM [inhibitor, single point].

**Q.** Which “activity change, negative = inhibition” value does the source give for `O=C(NC(=S)N1CCCCC1)c1csc([N+](=O)[O-])c1` here?
**A.** The value was inactive: -11%.

**Q.** With `Nc1ccc(CCN2CCN(c3cccc(C(F)(F)F)c3)CC2)cc1` as the compound, how does the Potency read?
**A.** Its Potency is inconclusive: 0.0103 µM [inhibitor, full curve, poor fit].

**Q.** Which “activity change, negative = inhibition” value does the source give for `CCc1ccccc1OCC(=O)NC1CCCC1` here?
**A.** The value was inactive: 2.99%.

**Q.** With `Cn1c(=O)c2c(nc(CN3CCN(C(=O)c4ccco4)CC3)n2CCc2ccccc2)n(C)c1=O` as the compound, how does the Potency read?
**A.** The Potency was inconclusive: 23.1 µM [inhibitor, partial curve, poor fit].

**Q.** For `CCCCn1c(-c2ccco2)nc2ccccc2c1=O`, which “activity change, negative = inhibition” value is on record?
**A.** Its value is inactive: 6.14%.

**Q.** Which “activity change, negative = inhibition” value does the source give for `O=c1c2ccc(Cl)cc2nc2n1CC/C2=C\c1cccc(O)c1` here?
**A.** The value was inactive: -16.1% [at 46.1 µM].

**Q.** With `COc1ccccc1-c1nc2c(c(SCc3ccc(F)cc3Cl)n1)Cc1c(CO)cnc(C)c1O2` as the compound, how does the “activity change, negative = inhibition” value read?
**A.** The value was inactive: 14.4% [at 46.1 µM].

**Q.** For `Cc1cc(O)c(/C=N/Nc2ccccc2)c(=O)o1`, which Potency is on record?
**A.** Its Potency is inconclusive: 8.91 µM [inhibitor, partial curve].

**Q.** Which Potency does the source give for `O=C(CN1c2ccccc2Sc2ccccc21)N/N=C/c1ccc(Cl)cc1` here?
**A.** Its Potency is inconclusive: 11.2 µM [inhibitor, partial curve, poor fit].

**Q.** With `O=C(Nc1ccccc1C(F)(F)F)C1CCN(C(=O)c2cccs2)CC1` as the compound, how does the “activity change, negative = inhibition” value read?
**A.** Its value is inactive: -7.56% [at 46.1 µM].

**Q.** With `C#CCN1C(=O)[C@]2(O[C@H](COc3ccccc3)CC3=C2CCC3)c2ccccc21` as the compound, how does the Potency read?
**A.** The Potency was inconclusive: 0.596 µM [inhibitor, single point].

**Q.** For `C=CCn1c(=O)[nH]c2cc(C(=O)N3CCN(c4ccc(C(C)=O)cc4)CC3)ccc2c1=O`, which Potency is on record?
**A.** The Potency was inconclusive: 32.6 µM [inhibitor, single point].

**Q.** For `Cc1ccc(SC(C)c2nc(-c3ccncc3)no2)cc1` (configuration not stated), which “activity change, negative = inhibition” value is on record?
**A.** Its value is inactive: -11.3%.

**Q.** For `Cc1ccc(O)c(-c2cc(-c3ccccc3[N+](=O)[O-])[nH]n2)c1`, which “activity change, negative = inhibition” value is on record?
**A.** Its value is inactive: -16.8%.

**Q.** Which “activity change, negative = inhibition” value does the source give for `COC(=O)CC(=O)CSc1nc2c(cc1C#N)CCCCC2` here?
**A.** Its value is inactive: -7.59%.

**Q.** Which Potency does the source give for `O=C(Nc1ccc(F)cc1)c1ccc(Cn2nc(N3CCN(c4ccccc4)CC3)ccc2=O)o1` here?
**A.** Its Potency is inconclusive: 11.2 µM [inhibitor, partial curve, poor fit].

**Q.** Which Potency does the source give for `COc1ccc(C2C(C(C)=O)=C(C)N=c3s/c(=C\c4cc(C)n(C)c4C)c(=O)n32)c(OC)c1` (configuration not stated) here?
**A.** Its Potency is inconclusive: 11.2 µM [inhibitor, single point].

**Q.** With `CC1Cc2ccccc2N1Cc1ccc([N+](=O)[O-])cc1` (configuration not stated) as the compound, how does the “activity change, negative = inhibition” value read?
**A.** The value was inactive: -11.4%.

**Q.** Which “activity change, negative = inhibition” value does the source give for `COc1ccc(-n2c(C)cc(C(=O)NC3CCCCC3)c2C)cc1` here?
**A.** Its value is inactive: 16.2%.

**Q.** With `Cc1cccc(OCC(=O)O/N=C(\N)Cc2cccs2)c1` as the compound, how does the “activity change, negative = inhibition” value read?
**A.** The value was inactive: -3.22%.

**Q.** With `Nn1c(-c2cccc(Br)c2)n[nH]c1=S` as the compound, how does the “activity change, negative = inhibition” value read?
**A.** Its value is inactive: 3.16%.

**Q.** For `CCN(CC(=O)Nc1cc(Cl)ccc1C)C(=O)c1ccc(=O)n(Cc2ccccc2)n1`, which “activity change, negative = inhibition” value is on record?
**A.** The value was inactive: 1.35%.

**Q.** For `Cc1ccc(C)c(NC(=S)NNC(=O)c2csc(C(C)C)c2)c1`, which “activity change, negative = inhibition” value is on record?
**A.** The value was inactive: -12.4%.

**Q.** With `COc1ccc(CCNC(=O)CSc2ccc3ccccc3c2)cc1OC` as the compound, how does the Potency read?
**A.** The Potency was inconclusive: 6.31 µM [inhibitor, single point].

**Q.** With `Cc1nnc(NC(=O)C(C)Sc2nnc(CNC(=O)c3ccccc3F)n2C)s1` (configuration not stated) as the compound, how does the “activity change, negative = inhibition” value read?
**A.** Its value is inactive: 24%.

**Q.** Which Potency does the source give for `CCC(CC)C(=O)Nc1c(C(=O)N2CCN(c3ccccc3)CC2)oc2ccccc12` here?
**A.** Its Potency is inconclusive: 20 µM [inhibitor, single point].

**Q.** With `CN1CCN(CC(=O)N2N=C(c3cccs3)CC2c2ccco2)CC1` (configuration not stated) as the compound, how does the Potency read?
**A.** The Potency was inconclusive: 0.794 µM [inhibitor, single point].

**Q.** For `COc1ccc(C(=O)CCC(=O)NCCc2c[nH]c3ccccc23)cc1OC`, which Potency is on record?
**A.** The Potency was inconclusive: 15.8 µM [inhibitor, single point].

**Q.** Which Potency does the source give for `CCCN(CCC)CC(O)Cn1cc(/C=C/C(=O)c2ccc(OC)cc2)c2ccccc21` (configuration not stated) here?
**A.** Its Potency is inconclusive: 35.5 µM [inhibitor, single point].

**Q.** Which Potency does the source give for `CC(C)n1nnnc1SCC(=O)Nc1ccccc1N1CCOCC1` here?
**A.** Its Potency is inconclusive: 0.112 µM [inhibitor, full curve, poor fit].

**Q.** With `Cc1cccc(CSc2nc3cc(C(=O)NC4CCCC4)ccc3c(=O)n2Cc2ccccc2)c1` as the compound, how does the Potency read?
**A.** Its Potency is inconclusive: 6.31 µM [inhibitor, single point].

**Q.** For `Cc1nc2scc(-c3ccc(C(C)C)cc3)c2c(=O)n1N`, which “activity change, negative = inhibition” value is on record?
**A.** Its value is inactive: 12.1%.

**Q.** With `Cc1ccc2c(c1)c1c(n2CC(O)Cn2ccnc2C)C(=O)CCC1` (configuration not stated) as the compound, how does the Potency read?
**A.** Its Potency is inconclusive: 35.5 µM [inhibitor, single point].

**Q.** Which Potency does the source give for `O=[N+]([O-])c1cccnc1Oc1ccc(F)cc1` here?
**A.** The Potency was inconclusive: 12.6 µM [inhibitor, partial curve, poor fit].

**Q.** With `CCc1cccc(NC(=O)Cn2c(=O)c(C(F)(F)F)nc3ccccc32)c1` as the compound, how does the Potency read?
**A.** The Potency was inconclusive: 15.8 µM [activator, single point].

**Q.** With `Brc1ccc2ncnc(Nc3cccc4ccccc34)c2c1` as the compound, how does the Potency read?
**A.** Its Potency is inconclusive: 20.6 µM [inhibitor, single point].

**Q.** Which Potency does the source give for `CSc1nnc(C)c(/C=C/NOCc2cccc(F)c2)n1` here?
**A.** Its Potency is inconclusive: 0.58 µM [inhibitor, full curve, poor fit].

**Q.** With `CCOc1ccccc1CN1CCN(S(=O)(=O)CC)CC1` as the compound, how does the Potency read?
**A.** Its Potency is inconclusive: 6.51 µM [activator, full curve, poor fit].

**Q.** Which Potency does the source give for `Cc1nc(Cl)c2c(n1)NC1=C(O2)C(=O)CCC1` here?
**A.** The Potency was inconclusive: 6.51 µM [inhibitor, single point].

**Q.** With `O=C(CSc1n[nH]c(-c2ccccc2)n1)N1CCCC1` as the compound, how does the “activity change, negative = inhibition” value read?
**A.** Its value is inactive: 9.3% [at 46.1 µM].

**Q.** For `C=CCOc1ccc(C2NC(=S)NC(C)=C2C(=O)c2ccccc2)cc1OC` (configuration not stated), which Potency is on record?
**A.** Its Potency is inconclusive: 35.5 µM [inhibitor, single point].

**Q.** With `Cn1c(O)c(C(c2ccncc2)c2c(O)n(C)c(=S)n(C)c2=O)c(=O)n(C)c1=S` as the compound, how does the “activity change, negative = inhibition” value read?
**A.** Its value is inactive: 2.09%.

**Q.** For `CNC(=O)CSc1nnc(-c2ccco2)n1-c1cccc(C)c1`, which “activity change, negative = inhibition” value is on record?
**A.** The value was inactive: 14.9%.

**Q.** For `C[C@]12CC[C@H](OC(=O)CCC(=O)O)CC1=CCC1C2CC[C@@]2(C)C1CC[C@@H]2OC(=O)CCC(=O)O` (some centres not stated), which Potency is on record?
**A.** Its Potency is inconclusive: 11.2 µM [activator, partial curve, poor fit].

From PubChem BioAssay AID540256 (National Center for Advancing Translational Sciences (NCATS), 2011)
